Assay results reported in patent publication US9744314B2, “Aerosols for sinunasal drug delivery” (PARI Pharma GmbH, priority 2007, dated 2017).

Experiment: Sinunasal deposition of nebulised azithromycin formulation in nasal cast model (Example 3)
Set-up: species or system human

CC[C@H]1OC(=O)[C@H](C)[C@@H](O[C@H]2C[C@@](C)(OC)[C@@H](O)[C@H](C)O2)[C@H](C)[C@@H](O[C@@H]2O[C@H](C)C[C@H](N(C)C)[C@H]2O)[C@](C)(O)C[C@@H](C)CN(C)[C@H](C)[C@@H](O)[C@]1(C)O [azithromycin]
Deposited Azithromycin in sinus (Frontal left, 7.5 ml, ostium 0.5 mm): 312 µg | Deposited Azithromycin in sinus (Frontal right, 7.5 ml, ostium 0.5 mm, 2×0.5 ml of 50 mg/ml, flow rate 1.01/min, 36 Hz): 214 µg | Deposited Azithromycin in sinus (Maxillary left, 23 ml, ostium 2 mm): 5568 µg | Deposited Azithromycin in sinus (Maxillary right, 23 ml, ostium 2 mm): 5039 µg | Deposited Azithromycin in sinus (Sphenoid left, 12 ml, ostium 1 mm): 1908 µg | Deposited Azithromycin in sinus (Sphenoid right, 12 ml, ostium 1 mm): 1661 µg
